{"source": "patent US20210353701A1", "about": "“ULTRAVIOLET LIGHT-INDUCED INFLAMMATION SUPPRESSING AGENT COMPRISING ALTERNATIVE AUTOPHAGY INDUCING AGENT” (Shiseido Company, Ltd., priority 2018, published 2021)", "tested_on": "Normal human epidermal keratinocytes (NHEK)", "experiment": "IL-1β production after ultraviolet irradiation in NHEK treated with autophagy inhibitor or inducing agent (ELISA)", "format": "cell-based", "details": "rapamycin 0.5 μM; UV 290 to 315 nm, 20 mJ/cm^2; culture supernatant after 48 hours", "description": "Normal human epidermal keratinocytes (NHEK) (Kurabo Industries, Ltd.) were seeded in a 6-well plate and cultured to subconfluence using epidermal keratinocyte growth medium (EpiLife-KG2; Gibco Co). The medium was then exchanged with medium containing 3-methyladenine (3-MA) (by R&D Co., final concentration: 1 mM), as a known autophagy inhibitor and medium containing rapamycin (by Enzo Life Science, final concentration: 0.5 μM) as a known autophagy inducing agent, and culturing was continued for 3 hours. After culturing, the medium was discarded, PBS was added and irradiation was carried out with ultraviolet rays (290 to 315 nm) at a radiation intensity of 20 mJ/cm^2. Following ultraviolet irradiation, culturing was continued under the medium conditions described above including 3-MA or rapamycin, and after 48 hours the culture supernatant of each was obtained. The IL-1β concentration of the obtained culture supernatant was evaluated using a Quantikine Human IL-1β ELISA Kit (R&D co.) (FIGS. 1A and B). Statistical significance testing was conducted using Student's or Welch's t test.", "note": "For at least one compound, name, drawing or mass did not settle the structure.", "data": [{"smiles": "CO[C@H]1C[C@@H]2CC[C@@H](C)[C@@](O)(O2)C(=O)C(=O)N2CCCC[C@H]2C(=O)O[C@H]([C@H](C)C[C@@H]2CC[C@@H](O)[C@H](OC)C2)CC(=O)[C@H](C)/C=C(\\C)[C@@H](O)[C@@H](OC)C(=O)[C@H](C)C[C@H](C)/C=C/C=C/C=C/1C", "note": "[rapamycin]", "values": [{"measurement": "IL-1β after ultraviolet irradiation", "value": "significantly decreased"}]}]}
